Values of other authors in US6900214B2, “Cyano-substituted dihydropyrimidine compounds and their use to treat diseases” (Bristol-Myers Squibb Company, priority 2001, dated 2005).
At least one compound was matched to its structure with a doubt left.

Tested on: mitotic spindle

## CCOC(=O)C1=C(C)NC(=S)NC1c1cccc(O)c1 (stereo not shown) [monastrol]
  reversibility of monoastral array phenotype and cell cycle arrest in mitosis: reversible
